Among the data in patent US20240425876A1 (CHIGENOVO, published 2024) are binding values, retold here.

These are yes or no findings as the source states them, for the method shown. Binding seen in cells or lysates may run through a third protein. Some entries that bind do so weakly or less than the wild type. Sequences can lack the tags named with a protein.

Assay [1] has as its target T1, C-terminal truncated version (aa 1348-2273) of ABCA4 with a Flag tag at its C-terminus (human) (UniProt P78363).
T1 sequence: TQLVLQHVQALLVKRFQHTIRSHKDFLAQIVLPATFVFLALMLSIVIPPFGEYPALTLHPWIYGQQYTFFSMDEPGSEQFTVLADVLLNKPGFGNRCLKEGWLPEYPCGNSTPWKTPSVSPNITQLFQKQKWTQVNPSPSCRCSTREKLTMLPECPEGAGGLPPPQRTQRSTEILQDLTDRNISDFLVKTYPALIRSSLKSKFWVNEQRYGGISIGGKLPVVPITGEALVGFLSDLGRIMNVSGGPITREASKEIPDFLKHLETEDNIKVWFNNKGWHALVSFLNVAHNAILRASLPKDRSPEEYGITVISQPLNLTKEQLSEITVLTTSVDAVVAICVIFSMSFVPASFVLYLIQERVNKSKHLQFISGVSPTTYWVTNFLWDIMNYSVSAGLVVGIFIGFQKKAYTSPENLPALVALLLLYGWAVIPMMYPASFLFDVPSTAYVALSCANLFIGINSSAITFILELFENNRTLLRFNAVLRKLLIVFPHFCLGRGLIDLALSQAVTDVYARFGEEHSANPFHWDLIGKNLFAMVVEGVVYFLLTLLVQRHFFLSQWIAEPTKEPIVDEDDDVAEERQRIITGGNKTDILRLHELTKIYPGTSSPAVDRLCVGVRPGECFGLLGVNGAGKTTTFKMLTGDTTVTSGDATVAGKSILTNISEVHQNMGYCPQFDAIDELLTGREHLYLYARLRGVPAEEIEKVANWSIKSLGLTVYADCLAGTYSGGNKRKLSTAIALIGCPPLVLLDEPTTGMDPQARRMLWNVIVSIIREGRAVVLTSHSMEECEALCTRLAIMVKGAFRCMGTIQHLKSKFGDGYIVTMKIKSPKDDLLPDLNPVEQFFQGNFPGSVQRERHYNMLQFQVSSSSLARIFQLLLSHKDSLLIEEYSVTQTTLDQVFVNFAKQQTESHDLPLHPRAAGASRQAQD
Description: co-immunoprecipitation: flag antibody beads, HA western blot, HEK293 lysate. (A western blot detects proteins with antibodies after separation by electrophoresis.)

Substrate in assay [2]: T2, C* (aa 1-20, 1369-2273) C-terminal truncated version of ABCA4 with a Flag tag at its C-terminus (human) (UniProt P78363)
T2 sequence: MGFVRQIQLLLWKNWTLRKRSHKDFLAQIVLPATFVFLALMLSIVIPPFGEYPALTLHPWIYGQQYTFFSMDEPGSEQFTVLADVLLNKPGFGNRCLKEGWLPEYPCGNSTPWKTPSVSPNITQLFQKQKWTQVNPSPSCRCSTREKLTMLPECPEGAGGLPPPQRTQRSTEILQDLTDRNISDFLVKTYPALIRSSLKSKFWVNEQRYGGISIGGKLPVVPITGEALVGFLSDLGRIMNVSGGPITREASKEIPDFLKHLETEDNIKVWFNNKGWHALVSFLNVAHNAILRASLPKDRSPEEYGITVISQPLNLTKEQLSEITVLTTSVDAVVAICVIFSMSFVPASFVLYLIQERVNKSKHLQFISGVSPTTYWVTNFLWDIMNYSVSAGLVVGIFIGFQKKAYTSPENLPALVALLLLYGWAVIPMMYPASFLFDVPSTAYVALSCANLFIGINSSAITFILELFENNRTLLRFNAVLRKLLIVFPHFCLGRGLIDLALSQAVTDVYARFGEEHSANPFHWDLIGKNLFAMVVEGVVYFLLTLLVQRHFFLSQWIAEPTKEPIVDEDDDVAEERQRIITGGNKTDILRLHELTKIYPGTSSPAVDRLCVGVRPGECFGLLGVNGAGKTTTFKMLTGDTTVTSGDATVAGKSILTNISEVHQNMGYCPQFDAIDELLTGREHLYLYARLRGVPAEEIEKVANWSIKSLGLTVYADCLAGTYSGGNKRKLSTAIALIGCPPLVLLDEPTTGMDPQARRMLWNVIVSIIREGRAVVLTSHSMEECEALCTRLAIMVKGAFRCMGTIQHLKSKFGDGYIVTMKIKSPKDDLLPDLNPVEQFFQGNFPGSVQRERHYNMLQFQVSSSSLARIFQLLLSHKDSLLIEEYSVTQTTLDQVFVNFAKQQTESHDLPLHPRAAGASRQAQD
The assay is described as above.

B1: N1280* (aa 1-1280*, 2253-2273) N-terminal truncated version of ABCA4 with an HA tag at its C-terminus (protein, not shown: small tags and cut ends)
chain: MGFVRQIQLLLWKNWTLRKRQKIRFVVELVWPLSLFLVLIWLRNANPLYSHHECHFPNKAMPSAGMLPWLQGIFCNVNNPCFQSPTPGESPGIVSNYNNSILARVYRDFQELLMNAPESQHLGRIWTELHILSQFMDTLRTHPERIAGRGIRIRDILKDEETLTLFLIKNIGLSDSVVYLLINSQVRPEQFAHGVPDLALKDIACSEALLERFIIFSQRRGAKTVRYALCSLSQGTLQWIEDTLYANVDFFKLFRVLPTLLDSRSQGINLRSWGGILSDMSPRIQEFIHRPSMQDLLWVTRPLMQNGGPETFTKLMGILSDLLCGYPEGGGSRVLSFNWYEDNNYKAFLGIDSTRKDPIYSYDRRTTSFCNALIQSLESNPLTKIAWRAAKPLLMGKILYTPDSPAARRILKNANSTFEELEHVRKLVKAWEEVGPQIWYFFDNSTQMNMIRDTLGNPTVKDFLNRQLGEEGITAEAILNFLYKGPRESQADDMANFDWRDIFNITDRTLRLVNQYLECLVLDKFESYNDETQLTQRALSLLEENMFWAGVVFPDMYPWTSSLPPHVKYKIRMDIDVVEKTNKIKDRYWDSGPRADPVEDFRYIWGGFAYLQDMVEQGITRSQVQAEAPVGIYLQQMPYPCFVDDSFMIILNRCFPIFMVLAWIYSVSMTVKSIVLEKELRLKETLKNQGVSNAVIWCTWFLDSFSIMSMSIFLLTIFIMHGRILHYSDPFILFLFLLAFSTATIMLCFLLSTFFSKASLAAACSGVIYFTLYLPHILCFAWQDRMTAELKKAVSLLSPVAFGFGTEYLVRFEEQGLGLQWSNIGNSPTEGDEFSFLLSMQMMLLDAAVYGLLAWYLDQVFPGDYGTPLPWYFLLQESYWLGGEGCSTREERALEKTEPLTEETEDPEHPEGIHDSFFEREHPGWVPGVCVKNLVKIFEPCGRPAVDRLNITFYENQITAFLGHNGAGKTTTLSILTGLLPPTSGTVLVGGRDIETSLDAVRQSLGMCPQHNILFHHLTVAEHMLFYAQLKGKSQEEAQLEMEAMLEDTGLHHKRNEEAQDLSGGMQRKLSVAIAFVGDAKVVILDEPTSGVDPYSRRSIWDLLLKYRSGRTIIMSTHHMDEADLLGDRIAIIAQGRLYCSGTPLFLKNCFGTGLYLTLVRKMKNIQSQRKGSEGTCSCSSKGFSTTCPAHVDDLTPEQVLDGDVNELMDVVLHHVPEAKLVECIGQELIFLLPNKNFKHRAYASLFRELEETLADLGLSSFGISDTPLEEIFLKVTEDSTESHDLPLHPRAAGASRQAQD
Turning to B1, the binding entry in assay [1] and in assay [2] was “binds” each time.

B2: N1280 (aa 1-1280) N-terminal truncated version of ABCA4 with an HA tag at its C-terminus (protein, not shown: small tags and cut ends)
chain: MGFVRQIQLLLWKNWTLRKRQKIRFVVELVWPLSLFLVLIWLRNANPLYSHHECHFPNKAMPSAGMLPWLQGIFCNVNNPCFQSPTPGESPGIVSNYNNSILARVYRDFQELLMNAPESQHLGRIWTELHILSQFMDTLRTHPERIAGRGIRIRDILKDEETLTLFLIKNIGLSDSVVYLLINSQVRPEQFAHGVPDLALKDIACSEALLERFIIFSQRRGAKTVRYALCSLSQGTLQWIEDTLYANVDFFKLFRVLPTLLDSRSQGINLRSWGGILSDMSPRIQEFIHRPSMQDLLWVTRPLMQNGGPETFTKLMGILSDLLCGYPEGGGSRVLSFNWYEDNNYKAFLGIDSTRKDPIYSYDRRTTSFCNALIQSLESNPLTKIAWRAAKPLLMGKILYTPDSPAARRILKNANSTFEELEHVRKLVKAWEEVGPQIWYFFDNSTQMNMIRDTLGNPTVKDFLNRQLGEEGITAEAILNFLYKGPRESQADDMANFDWRDIFNITDRTLRLVNQYLECLVLDKFESYNDETQLTQRALSLLEENMFWAGVVFPDMYPWTSSLPPHVKYKIRMDIDVVEKTNKIKDRYWDSGPRADPVEDFRYIWGGFAYLQDMVEQGITRSQVQAEAPVGIYLQQMPYPCFVDDSFMIILNRCFPIFMVLAWIYSVSMTVKSIVLEKELRLKETLKNQGVSNAVIWCTWFLDSFSIMSMSIFLLTIFIMHGRILHYSDPFILFLFLLAFSTATIMLCFLLSTFFSKASLAAACSGVIYFTLYLPHILCFAWQDRMTAELKKAVSLLSPVAFGFGTEYLVRFEEQGLGLQWSNIGNSPTEGDEFSFLLSMQMMLLDAAVYGLLAWYLDQVFPGDYGTPLPWYFLLQESYWLGGEGCSTREERALEKTEPLTEETEDPEHPEGIHDSFFEREHPGWVPGVCVKNLVKIFEPCGRPAVDRLNITFYENQITAFLGHNGAGKTTTLSILTGLLPPTSGTVLVGGRDIETSLDAVRQSLGMCPQHNILFHHLTVAEHMLFYAQLKGKSQEEAQLEMEAMLEDTGLHHKRNEEAQDLSGGMQRKLSVAIAFVGDAKVVILDEPTSGVDPYSRRSIWDLLLKYRSGRTIIMSTHHMDEADLLGDRIAIIAQGRLYCSGTPLFLKNCFGTGLYLTLVRKMKNIQSQRKGSEGTCSCSSKGFSTTCPAHVDDLTPEQVLDGDVNELMDVVLHHVPEAKLVECIGQELIFLLPNKNFKHRAYASLFRELEETLADLGLSSFGISDTPLEEIFLKVTEDS
Consider B2, for which, in assay [1], the binding result is listed as “binds”.

B3: N1160 (aa 1-1160) N-terminal truncated version of ABCA4 with an HA tag at its C-terminus (protein, not shown: small tags and cut ends)
chain: MGFVRQIQLLLWKNWTLRKRQKIRFVVELVWPLSLFLVLIWLRNANPLYSHHECHFPNKAMPSAGMLPWLQGIFCNVNNPCFQSPTPGESPGIVSNYNNSILARVYRDFQELLMNAPESQHLGRIWTELHILSQFMDTLRTHPERIAGRGIRIRDILKDEETLTLFLIKNIGLSDSVVYLLINSQVRPEQFAHGVPDLALKDIACSEALLERFIIFSQRRGAKTVRYALCSLSQGTLQWIEDTLYANVDFFKLFRVLPTLLDSRSQGINLRSWGGILSDMSPRIQEFIHRPSMQDLLWVTRPLMQNGGPETFTKLMGILSDLLCGYPEGGGSRVLSFNWYEDNNYKAFLGIDSTRKDPIYSYDRRTTSFCNALIQSLESNPLTKIAWRAAKPLLMGKILYTPDSPAARRILKNANSTFEELEHVRKLVKAWEEVGPQIWYFFDNSTQMNMIRDTLGNPTVKDFLNRQLGEEGITAEAILNFLYKGPRESQADDMANFDWRDIFNITDRTLRLVNQYLECLVLDKFESYNDETQLTQRALSLLEENMFWAGVVFPDMYPWTSSLPPHVKYKIRMDIDVVEKTNKIKDRYWDSGPRADPVEDFRYIWGGFAYLQDMVEQGITRSQVQAEAPVGIYLQQMPYPCFVDDSFMIILNRCFPIFMVLAWIYSVSMTVKSIVLEKELRLKETLKNQGVSNAVIWCTWFLDSFSIMSMSIFLLTIFIMHGRILHYSDPFILFLFLLAFSTATIMLCFLLSTFFSKASLAAACSGVIYFTLYLPHILCFAWQDRMTAELKKAVSLLSPVAFGFGTEYLVRFEEQGLGLQWSNIGNSPTEGDEFSFLLSMQMMLLDAAVYGLLAWYLDQVFPGDYGTPLPWYFLLQESYWLGGEGCSTREERALEKTEPLTEETEDPEHPEGIHDSFFEREHPGWVPGVCVKNLVKIFEPCGRPAVDRLNITFYENQITAFLGHNGAGKTTTLSILTGLLPPTSGTVLVGGRDIETSLDAVRQSLGMCPQHNILFHHLTVAEHMLFYAQLKGKSQEEAQLEMEAMLEDTGLHHKRNEEAQDLSGGMQRKLSVAIAFVGDAKVVILDEPTSGVDPYSRRSIWDLLLKYRSGRTIIMSTHHMDEADLLGDRIAIIAQGRLYCSGTPLFLKNCFGTGLYLTLV
On to B3, for which the binding result in assay [1] is on record as “binds”.
